From paper PMC8274477
These are yes or no findings as the source states them, for the method shown. Some entries that bind do so weakly or less than the wild type.

Amino acid sequences for entries named in this document (tags omitted). Residues count along the entry.
UniProt P09651: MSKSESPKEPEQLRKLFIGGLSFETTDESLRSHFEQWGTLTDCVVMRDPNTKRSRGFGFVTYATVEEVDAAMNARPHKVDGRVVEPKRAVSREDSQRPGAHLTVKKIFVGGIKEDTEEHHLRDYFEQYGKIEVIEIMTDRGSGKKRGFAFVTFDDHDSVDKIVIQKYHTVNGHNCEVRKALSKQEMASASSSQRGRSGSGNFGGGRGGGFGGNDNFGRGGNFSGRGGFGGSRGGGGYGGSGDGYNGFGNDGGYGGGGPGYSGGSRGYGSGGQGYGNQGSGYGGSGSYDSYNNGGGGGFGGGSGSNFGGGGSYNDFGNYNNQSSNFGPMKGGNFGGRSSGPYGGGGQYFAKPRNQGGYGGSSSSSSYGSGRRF
UniProt P15502, residues 27-786: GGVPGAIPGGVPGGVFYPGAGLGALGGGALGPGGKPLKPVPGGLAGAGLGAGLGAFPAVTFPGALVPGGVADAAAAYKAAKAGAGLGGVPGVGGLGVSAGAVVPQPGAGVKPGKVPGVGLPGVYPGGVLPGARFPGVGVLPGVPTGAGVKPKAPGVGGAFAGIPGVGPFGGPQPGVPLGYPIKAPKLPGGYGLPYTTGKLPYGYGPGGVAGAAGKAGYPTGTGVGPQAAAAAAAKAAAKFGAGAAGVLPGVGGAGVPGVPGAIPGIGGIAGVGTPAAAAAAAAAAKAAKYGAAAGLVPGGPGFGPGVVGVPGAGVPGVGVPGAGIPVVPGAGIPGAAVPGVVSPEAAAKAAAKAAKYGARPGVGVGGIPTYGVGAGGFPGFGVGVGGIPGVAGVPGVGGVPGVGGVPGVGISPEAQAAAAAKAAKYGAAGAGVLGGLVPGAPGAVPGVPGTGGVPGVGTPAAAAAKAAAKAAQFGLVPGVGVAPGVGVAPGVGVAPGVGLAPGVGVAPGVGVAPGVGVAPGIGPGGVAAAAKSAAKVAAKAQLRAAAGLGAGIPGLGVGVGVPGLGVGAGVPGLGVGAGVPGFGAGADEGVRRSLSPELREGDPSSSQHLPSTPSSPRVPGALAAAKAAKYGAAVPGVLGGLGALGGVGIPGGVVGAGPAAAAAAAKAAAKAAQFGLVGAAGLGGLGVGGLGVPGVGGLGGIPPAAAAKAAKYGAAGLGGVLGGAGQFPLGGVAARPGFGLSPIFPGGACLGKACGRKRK
UniProt Q9NXA8, residues 37-310: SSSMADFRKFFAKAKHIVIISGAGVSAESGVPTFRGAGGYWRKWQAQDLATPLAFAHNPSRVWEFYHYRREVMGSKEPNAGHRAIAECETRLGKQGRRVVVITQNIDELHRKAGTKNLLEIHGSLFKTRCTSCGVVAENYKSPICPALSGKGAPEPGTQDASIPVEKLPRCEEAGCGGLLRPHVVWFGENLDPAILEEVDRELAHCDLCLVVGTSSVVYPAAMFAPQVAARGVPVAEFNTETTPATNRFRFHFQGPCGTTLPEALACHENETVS
UniProt Q9NTU7, residues 28-201: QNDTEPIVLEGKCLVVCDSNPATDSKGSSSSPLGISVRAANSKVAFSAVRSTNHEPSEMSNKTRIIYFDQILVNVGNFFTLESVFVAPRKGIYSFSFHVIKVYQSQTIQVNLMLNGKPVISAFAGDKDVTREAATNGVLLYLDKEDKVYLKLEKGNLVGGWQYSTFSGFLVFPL

Key:
Assay in all cases: peptide or protein array; HuProt human proteome microarray; 5 ug/5 ml biotin-labelled LUBAC or OTULIN in solution, 1 h at room temperature; Cy5-streptavidin, scanned at 635 nm; BSA as negative control; hits: Z-score >= 3 and I_(Mean_Ratio) >= 1.4; both purified
HNRNPA1 (human) = HNRNPA1 (human) (UniProt P09651)
ELN (human) = ELN (human) (UniProt P15502)
STARD7 (human) = biological target: T1, STARD7 (human) (UniProt Q9NQZ5)
T1 sequence: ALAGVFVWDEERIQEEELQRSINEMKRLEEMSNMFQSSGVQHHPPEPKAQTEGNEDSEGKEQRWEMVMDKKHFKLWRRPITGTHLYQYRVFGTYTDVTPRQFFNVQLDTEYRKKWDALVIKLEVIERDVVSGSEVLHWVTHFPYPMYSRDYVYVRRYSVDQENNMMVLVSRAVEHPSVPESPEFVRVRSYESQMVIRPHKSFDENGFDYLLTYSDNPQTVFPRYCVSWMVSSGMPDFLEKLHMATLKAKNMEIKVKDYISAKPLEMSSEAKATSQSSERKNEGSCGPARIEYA

LONP1 (human) = biological target: T2, LONP1 (human) (UniProt P36776)
T2 sequence: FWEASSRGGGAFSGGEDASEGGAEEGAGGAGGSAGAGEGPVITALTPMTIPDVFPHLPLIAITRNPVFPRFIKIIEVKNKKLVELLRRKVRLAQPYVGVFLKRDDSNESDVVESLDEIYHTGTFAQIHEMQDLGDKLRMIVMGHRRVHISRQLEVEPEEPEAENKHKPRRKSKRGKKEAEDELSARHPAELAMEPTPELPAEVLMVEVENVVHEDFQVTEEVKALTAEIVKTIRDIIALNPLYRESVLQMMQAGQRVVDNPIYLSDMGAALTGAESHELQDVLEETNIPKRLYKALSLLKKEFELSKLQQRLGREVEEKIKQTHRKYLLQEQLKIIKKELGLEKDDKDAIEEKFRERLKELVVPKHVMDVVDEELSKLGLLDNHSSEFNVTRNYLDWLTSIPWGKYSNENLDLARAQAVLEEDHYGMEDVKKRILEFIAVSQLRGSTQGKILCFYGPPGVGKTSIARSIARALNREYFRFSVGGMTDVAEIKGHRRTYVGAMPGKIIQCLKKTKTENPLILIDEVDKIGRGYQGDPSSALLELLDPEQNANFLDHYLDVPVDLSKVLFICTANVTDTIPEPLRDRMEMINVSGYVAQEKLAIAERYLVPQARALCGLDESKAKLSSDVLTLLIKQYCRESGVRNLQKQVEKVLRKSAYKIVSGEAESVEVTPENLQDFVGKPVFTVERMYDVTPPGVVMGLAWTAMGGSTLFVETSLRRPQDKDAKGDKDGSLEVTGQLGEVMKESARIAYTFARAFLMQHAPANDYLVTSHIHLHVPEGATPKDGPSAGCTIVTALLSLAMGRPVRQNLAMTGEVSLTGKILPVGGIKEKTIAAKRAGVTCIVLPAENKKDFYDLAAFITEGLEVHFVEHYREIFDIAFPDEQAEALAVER

ACSL6 (human) = biological target: T3, ACSL6 (human) (UniProt Q9UKU0)
T3 sequence: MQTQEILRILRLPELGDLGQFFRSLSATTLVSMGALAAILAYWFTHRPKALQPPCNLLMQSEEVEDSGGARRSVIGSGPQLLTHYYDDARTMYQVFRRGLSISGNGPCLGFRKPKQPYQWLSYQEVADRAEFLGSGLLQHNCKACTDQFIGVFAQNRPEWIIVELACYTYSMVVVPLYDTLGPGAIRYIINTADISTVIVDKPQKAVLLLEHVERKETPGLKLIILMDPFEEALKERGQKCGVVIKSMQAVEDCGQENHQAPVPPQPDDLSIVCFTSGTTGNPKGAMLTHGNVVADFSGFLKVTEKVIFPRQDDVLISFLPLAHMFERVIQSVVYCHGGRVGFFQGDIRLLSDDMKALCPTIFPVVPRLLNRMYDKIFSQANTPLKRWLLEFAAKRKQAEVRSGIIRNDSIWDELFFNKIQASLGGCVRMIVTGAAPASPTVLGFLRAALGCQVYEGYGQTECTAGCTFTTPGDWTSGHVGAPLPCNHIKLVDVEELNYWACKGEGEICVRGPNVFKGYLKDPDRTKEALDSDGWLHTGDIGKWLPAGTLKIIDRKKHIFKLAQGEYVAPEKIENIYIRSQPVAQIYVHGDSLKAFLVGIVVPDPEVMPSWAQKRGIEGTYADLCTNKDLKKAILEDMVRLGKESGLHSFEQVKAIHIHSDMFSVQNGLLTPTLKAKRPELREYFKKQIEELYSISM

[1] = biological target: SIRT5 (spot on the microarray) (human) (UniProt Q9NXA8)
CBLN4 (human) = CBLN4 (human) (UniProt Q9NTU7)

Measured: binding

OTULIN (OTU deubiquitinase with linear linkage specificity, FAM105B), His-tagged, biotin-labelled (from UniProt Q96BN8 1-352) (enzyme)
binds: all assays above

linear ubiquitin chain assembly complex (LUBAC), purified as HIS-tagged HOIP with the subunit HOIL-1, biotin-labelled (from UniProt Q96EP0 1-1072; Q9BYM8 1-510)
binds: all assays above
